Taken from: PubChem BioAssay AID602196 (INSERM, 2012)

Purpose: 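Knock-downs that protect lung cancer cells from cisplatin or sensitise them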
Cells: human A549 lung cancer cells
Knock-down reagent: siRNA pair against human genes
Timing: 48 h transfection before cisplatin; time from cisplatin to read-out not stated
Conditions: cisplatin at a dose killing half of control-siRNA cells; exact dose and duration not given
Measurement: 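Shift in cisplatin death relative to control siRNA, from -50 (all cells die) to +50 (no cells die); siRNAs harmful on their own scored 0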
Reading the numbers: two-siRNA summed score (-2 to +2): higher = both siRNAs protect from cisplatin killing; -2 means both sensitise
Active means: 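Each siRNA scores 0 if harmful alone by LDH or WST-1, otherwise +1 if it reduces and -1 if it increases cisplatin killing; a gene is active when both siRNAs agree (sum +2 or -2)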
Meaning of the calls: active = both siRNAs shift cisplatin killing the same way; inactive = no consistent shift, or siRNA harmful alone
Here is one part, drawn at random, of about 23,000 deposited reagents. Of all reagents, 455 (2%) are marked active. 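Active includes both protection and sensitisation; some change values fall well beyond the stated -50 to +50 range.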 A number with no mark means an inactive call. The numbers tell different reagents against one gene apart. Not all columns of the deposit are shown. Reagent sequences are not shown. The record does not give: the amount of reagent.

PGRMC2 (GeneID 10424) gave two-siRNA summed score (-2 to +2) = -1.
Against LOC401289, the values are two-siRNA summed score (-2 to +2) = 0.
Against RGS14 (GeneID 10636) the deposit lists two-siRNA summed score (-2 to +2) = 0.
With knock-down of CDKL3 (GeneID 51265), the record shows two-siRNA summed score (-2 to +2) = 1.
Knock-down of OTUD6A (GeneID 139562) gave: two-siRNA summed score (-2 to +2) = 0.
IGF1R (GeneID 3480) showed two-siRNA summed score (-2 to +2) = -1.
LRRC47 (GeneID 57470) scored two-siRNA summed score (-2 to +2) = 1.
After knock-down of NT5C3A (GeneID 51251), the record shows two-siRNA summed score (-2 to +2) = 0.
Knock-down of LOC401182 came out at: two-siRNA summed score (-2 to +2) = 0.
Against BMP6 (GeneID 654), the entry reads two-siRNA summed score (-2 to +2) = -1.
Depletion of E4F1 (GeneID 1877) gave: two-siRNA summed score (-2 to +2) = 0.
PPIP5K1 (GeneID 9677) scored two-siRNA summed score (-2 to +2) = 1.
Depletion of LINC01181 (GeneID 379034) resulted in: two-siRNA summed score (-2 to +2) = 0.
Knock-down of SHANK3 (GeneID 85358) resulted in: two-siRNA summed score (-2 to +2) = 0.
After knock-down of CDC25A (GeneID 993) the results were two-siRNA summed score (-2 to +2) = -1.
For TXNDC9 (GeneID 10190), the entry reads two-siRNA summed score (-2 to +2) = -1.
Silencing of TRIM29 (GeneID 23650) gave: two-siRNA summed score (-2 to +2) = -1.
Depletion of LOC283584 resulted in: two-siRNA summed score (-2 to +2) = 0.

Targets above whose gene name starts with P or p (2):
PGRMC2 (GeneID 10424) | two-siRNA summed score (-2 to +2): -1
PPIP5K1 (GeneID 9677) | two-siRNA summed score (-2 to +2): 1

Further reagents follow.
GAPVD1 (GeneID 26130) showed two-siRNA summed score (-2 to +2) = 0.
With knock-down of KLF3 (GeneID 51274) the results were two-siRNA summed score (-2 to +2) = 0.
C16orf78 (GeneID 123970) scored two-siRNA summed score (-2 to +2) = 0.
After knock-down of ALG13 (GeneID 79868) #1, the screen gave two-siRNA summed score (-2 to +2) = 0.
Silencing of ALG13 (GeneID 79868) #2 resulted in: two-siRNA summed score (-2 to +2) = 0.
LOC440766 scored two-siRNA summed score (-2 to +2) = 1.
Silencing of MRPS27 (GeneID 23107) came out at: two-siRNA summed score (-2 to +2) = 1.
LOC442746 scored two-siRNA summed score (-2 to +2) = 1.
After knock-down of C1orf54 (GeneID 79630), the record shows two-siRNA summed score (-2 to +2) = 1.
Depletion of SARM1 (GeneID 23098) resulted in: two-siRNA summed score (-2 to +2) = 0.
After knock-down of SIDT2 (GeneID 51092) the results were two-siRNA summed score (-2 to +2) = 0.
LOC401056 scored two-siRNA summed score (-2 to +2) = 0.
Silencing of PTCD3 (GeneID 55037) came out at: two-siRNA summed score (-2 to +2) = 0.
